Results on 7 molecules are retold here after paper PMC11362043.

Chains of the proteins cited; added tags and fusions are not shown. Residues count along the entry.
UniProt Q9S841, residues 85-331: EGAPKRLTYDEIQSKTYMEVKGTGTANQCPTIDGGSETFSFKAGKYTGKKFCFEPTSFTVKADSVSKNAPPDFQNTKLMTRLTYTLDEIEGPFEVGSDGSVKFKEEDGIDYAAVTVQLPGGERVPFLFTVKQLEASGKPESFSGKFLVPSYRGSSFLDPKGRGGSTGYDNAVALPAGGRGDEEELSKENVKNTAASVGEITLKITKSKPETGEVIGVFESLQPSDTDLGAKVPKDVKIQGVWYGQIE
UniProt Q37165: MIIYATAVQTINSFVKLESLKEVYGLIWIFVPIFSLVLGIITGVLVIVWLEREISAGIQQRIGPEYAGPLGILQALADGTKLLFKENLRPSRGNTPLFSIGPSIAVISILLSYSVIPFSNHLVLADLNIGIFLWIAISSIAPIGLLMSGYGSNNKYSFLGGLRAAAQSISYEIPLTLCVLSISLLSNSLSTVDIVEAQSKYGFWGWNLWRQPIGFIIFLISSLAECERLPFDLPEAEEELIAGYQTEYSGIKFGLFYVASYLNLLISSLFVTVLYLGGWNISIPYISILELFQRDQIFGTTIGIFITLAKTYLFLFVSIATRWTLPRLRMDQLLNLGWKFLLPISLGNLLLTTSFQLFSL
UniProt P59230: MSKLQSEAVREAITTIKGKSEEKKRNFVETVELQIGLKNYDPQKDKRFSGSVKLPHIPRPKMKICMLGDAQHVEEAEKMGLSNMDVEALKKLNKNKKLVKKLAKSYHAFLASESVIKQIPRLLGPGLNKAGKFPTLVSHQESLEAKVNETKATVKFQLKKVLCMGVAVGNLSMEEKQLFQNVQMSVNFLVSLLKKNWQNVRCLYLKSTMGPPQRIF
UniProt P56774: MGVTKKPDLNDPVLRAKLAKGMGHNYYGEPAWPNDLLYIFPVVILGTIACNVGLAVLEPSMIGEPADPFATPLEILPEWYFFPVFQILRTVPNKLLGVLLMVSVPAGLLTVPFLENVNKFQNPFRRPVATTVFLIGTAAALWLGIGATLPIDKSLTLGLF
UniProt P25873, residues 68-277: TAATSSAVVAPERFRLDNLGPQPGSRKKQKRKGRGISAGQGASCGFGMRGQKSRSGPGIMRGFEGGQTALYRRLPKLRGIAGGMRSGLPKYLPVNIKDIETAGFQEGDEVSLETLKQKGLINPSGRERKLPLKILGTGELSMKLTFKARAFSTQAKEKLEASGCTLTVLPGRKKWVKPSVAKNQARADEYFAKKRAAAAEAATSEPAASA

These are yes or no findings as the source states them, for the method shown. Binding seen in cells or lysates may run through a third protein. Some binding calls cover weakened binding; strength is not graded here.

Holding throughout (test): cross-linking; 1 mM DSBU (MS-cleavable) directly after cell disruption and again after chloroplast isolation; 1% SDS; lpBN-PAGE fractions digested with trypsin; interlinks identified by MS (MaxLynx); plants acclimated to LL, GL, EL or HL (20, 120, 600, 1000 µmol m^-2 s^-1)
The target in experiment [1] is PsbO2 (Arabidopsis thaliana (endogenous in leaf chloroplast isolate)) (UniProt Q9S841).
Experiment [2] concerns the target NdhA (Arabidopsis thaliana (endogenous in leaf chloroplast isolate)) (UniProt Q37165).
The target of experiment [3] is T1, FtsH5 (Arabidopsis thaliana (endogenous in leaf chloroplast isolate)) (UniProt Q9FH02).
T1 sequence: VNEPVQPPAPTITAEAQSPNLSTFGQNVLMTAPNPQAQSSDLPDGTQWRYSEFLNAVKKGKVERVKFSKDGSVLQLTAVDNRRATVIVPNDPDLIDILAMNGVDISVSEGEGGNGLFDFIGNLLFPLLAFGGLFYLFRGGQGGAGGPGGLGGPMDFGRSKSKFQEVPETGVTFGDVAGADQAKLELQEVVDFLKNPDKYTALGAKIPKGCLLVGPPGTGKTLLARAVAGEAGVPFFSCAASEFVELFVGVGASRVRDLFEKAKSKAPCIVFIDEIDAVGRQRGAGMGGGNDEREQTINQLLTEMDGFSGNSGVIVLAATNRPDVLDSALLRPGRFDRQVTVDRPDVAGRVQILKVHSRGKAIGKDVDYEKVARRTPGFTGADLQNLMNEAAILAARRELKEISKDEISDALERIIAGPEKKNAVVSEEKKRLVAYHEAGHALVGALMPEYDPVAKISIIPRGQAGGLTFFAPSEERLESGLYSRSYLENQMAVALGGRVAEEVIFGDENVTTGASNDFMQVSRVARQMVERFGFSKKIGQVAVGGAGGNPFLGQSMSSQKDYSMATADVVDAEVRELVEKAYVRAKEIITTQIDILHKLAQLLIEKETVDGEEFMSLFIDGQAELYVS

The target of experiment [4] is RPL10AB (Arabidopsis thaliana (endogenous in leaf chloroplast isolate)) (UniProt P59230).
Experiment [5] concerns the target T2, FIB1A (Arabidopsis thaliana (endogenous in leaf chloroplast isolate)) (UniProt O81439).
T2 sequence: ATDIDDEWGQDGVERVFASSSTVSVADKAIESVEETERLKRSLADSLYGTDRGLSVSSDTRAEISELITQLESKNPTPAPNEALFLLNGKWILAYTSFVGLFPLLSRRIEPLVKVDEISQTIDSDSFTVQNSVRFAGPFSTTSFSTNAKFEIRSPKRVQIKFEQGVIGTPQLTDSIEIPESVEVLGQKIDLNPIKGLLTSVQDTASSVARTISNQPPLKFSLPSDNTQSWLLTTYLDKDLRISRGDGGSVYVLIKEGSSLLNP

Experiment [6] has as its target PetD (Arabidopsis thaliana (endogenous in leaf chloroplast isolate)) (UniProt P56774).
Experiment [7] concerns the target T3, TL20.3 (Arabidopsis thaliana (endogenous in leaf chloroplast isolate)) (UniProt Q8H1Q1).
T3 sequence: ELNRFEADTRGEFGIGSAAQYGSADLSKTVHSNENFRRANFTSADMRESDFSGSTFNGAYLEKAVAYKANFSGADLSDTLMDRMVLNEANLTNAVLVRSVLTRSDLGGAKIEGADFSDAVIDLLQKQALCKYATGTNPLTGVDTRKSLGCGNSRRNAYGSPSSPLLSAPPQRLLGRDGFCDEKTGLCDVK

Consider RPL15 (from UniProt P25873 68-277), for which, in experiment [1], the binding entry is recorded as “binds”. On to PsbO2 (from UniProt Q9S841 85-331), for which, in experiment [2], the binding result is “binds”.

B1: Psb29 (protein, UniProt Q9SKT0 68-300)
chain: SETKSKFLKAYKRPIPSIYNTVLQELIVQQHLMRYKKTYRYDPVFALGFVTVYDQLMEGYPSDQDRDAIFKAYIEALNEDPKQYRIDAQKMEEWARSQTSASLVDFSSKEGDIEAVLKDIAGRAGSKEGFSYSRFFAVGLFRLLELASATDPTVLDKLCASLNINKKSVDRDLDVYRNLLSKLVQAKELLKEYVEREKKKQGERAQSQKANETISKCLGDTLYNPSFLVERKS
With B1, the binding result in experiment [3] is “binds”.

B2: PsbP1 (protein, UniProt Q42029 78-263)
chain: AYGEAANVFGKPKTNTDFLPYNGDGFKVQVPAKWNPSKEIEYPGQVLRFEDNFDATSNLNVMVTPTDKKSITDYGSPEEFLSQVNYLLGKQAYFGETASEGGFDNNAVATANILESSSQEVGGKPYYYLSVLTRTADGDEGGKHQLITATVNGGKLYICKAQAGDKRWFKGARKFVESAATSFSVA
Turning to B2, in experiment [4], the binding result is reported as “binds”.

B3: PsbR (protein, UniProt P27202 42-140)
chain: SGVKKIKTDKPFGINGSMDLRDGVDASGRKGKGYGVYKYVDKYGANVDGYSPIYNENEWSASGDVYKGGVTGLAIWAVTLAGILAGGALLVYNTSALAQ
With B3, in experiment [5], the binding entry is reported as “binds”.

B4: HSP70–6 (protein, UniProt Q9STW6 93-718)
chain: AAMEGGKPTIVTNAEGQRTTPSVVAYTKSGDRLVGQIAKRQAVVNPENTFFSVKRFIGRKMNEVDEESKQVSYRVVRDENNNVKLECPAINKQFAAEEISAQVLRKLVDDASRFLNDKVTKAVITVPAYFNDSQRTATKDAGRIAGLEVLRIINEPTAASLAYGFDRKANETILVFDLGGGTFDVSVLEVGDGVFEVLSTSGDTHLGGDDFDKRVVDWLAAEFKKDEGIDLLKDKQALQRLTEAAEKAKIELSSLTQTNMSLPFITATADGPKHIETTLTRAKFEELCSDLLDRVRTPVENSLRDAKLSFKDIDEVILVGGSTRIPAVQELVRKVTGKEPNVTVNPDEVVALGAAVQAGVLAGDVSDIVLLDVTPLSIGLETLGGVMTKIIPRNTTLPTSKSEVFSTAADGQTSVEINVLQGEREFVRDNKSLGSFRLDGIPPAPRGVPQIEVKFDIDANGILSVSAVDKGTGKKQDITITGASTLPKDEVDQMVQEAERFAKDDKEKRDAIDTKNQADSVVYQTEKQLKELGEKIPGEVKEKVEAKLQELKDKIGSGSTQEIKDAMAALNQEVMQIGQSLYNQPGAGGPGAGPSPGGEGASSGDSSSSKGGDGDDVIDADFTDSQ
On to B4, for which, in experiment [6], the binding entry was “binds”.

B5: PSB27-H1 (protein, UniProt Q9LR64 69-174)
chain: AEDEEYIKDTSAVISKVRSTLSMQKTDPNVADAVAELREASNSWVAKYRKEKALLGKASFRDIYSALNAVSGHYVSFGPTAPIPAKRKARILEEMETAEKALTRGR
B5: in experiment [7], the binding result was “binds”.
